{"sequences": {"note": "Chains of the proteins cited; added tags and fusions are not shown.", "UniProt P42930": "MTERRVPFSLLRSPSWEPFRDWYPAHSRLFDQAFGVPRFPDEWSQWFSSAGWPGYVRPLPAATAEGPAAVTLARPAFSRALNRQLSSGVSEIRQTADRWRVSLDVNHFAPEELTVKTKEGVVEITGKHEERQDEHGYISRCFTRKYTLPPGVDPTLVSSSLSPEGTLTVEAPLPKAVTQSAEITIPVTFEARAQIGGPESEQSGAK"}, "source": "paper PMC6952976", "target": "T1, adenine nucleotide translocase 1 (rat (endogenous in neonatal rat cardiomyocytes)) (UniProt Q05962)", "T1 sequence": "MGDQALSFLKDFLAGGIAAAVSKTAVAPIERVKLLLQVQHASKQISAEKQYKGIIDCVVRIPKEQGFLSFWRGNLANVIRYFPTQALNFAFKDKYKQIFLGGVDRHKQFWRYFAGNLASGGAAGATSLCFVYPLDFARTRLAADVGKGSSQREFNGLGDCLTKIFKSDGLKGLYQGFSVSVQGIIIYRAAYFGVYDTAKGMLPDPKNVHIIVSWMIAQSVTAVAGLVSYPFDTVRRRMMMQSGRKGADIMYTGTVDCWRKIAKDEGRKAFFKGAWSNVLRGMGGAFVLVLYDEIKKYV", "experiment": "co-IP; ANT-specific antibody (Santa Cruz) and protein A/G agarose on lysates of normoxic WT or ANT1-TG neonatal rat cardiomyocytes; IP buffer 25 mM Tris-HCl, 600 mM NaCl, pH 7.2; Western blot with ANT1- and HSP27-specific antibodies; unspecific IgGs as negative control", "note": "Results are given in words; binding and its absence hold for the method and conditions named. In cells and extracts the contact can be indirect. Some entries that bind do so weakly or less than the wild type."}
{"substance": "heat shock protein 27 (from UniProt P42930 1-206)", "values": [{"measurement": "binding", "value": "binds"}]}
